Laboratory results: article PMC12486400
These are yes or no findings as the source states them, for the method shown. In cells and extracts the contact can be indirect. Some results given as binding are weak or reduced against the parent protein; the word gives no strength. Sequences can lack the tags named with a protein.

Target: T1, recombinant Kazald1-Fc protein (human) (UniProt Q96I82)
T1 sequence: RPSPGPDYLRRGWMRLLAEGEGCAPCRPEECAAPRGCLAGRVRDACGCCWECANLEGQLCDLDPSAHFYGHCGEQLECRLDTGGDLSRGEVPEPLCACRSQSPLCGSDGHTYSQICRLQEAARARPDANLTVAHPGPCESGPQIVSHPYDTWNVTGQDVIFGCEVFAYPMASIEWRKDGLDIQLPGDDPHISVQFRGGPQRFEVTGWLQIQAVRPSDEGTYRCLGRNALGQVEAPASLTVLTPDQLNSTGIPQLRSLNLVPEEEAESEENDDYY
Test: pull-down; called Co-IP / immunoprecipitation by the paper: 1 μg Kazald1-Fc (or 1 μg Fc fragment) held on protein A/G magnetic beads overnight at 4 °C, washed with PBS 0.05% Tween-20; lysate of TGFBR1-transfected HEK-293T cells (about 1 mg total protein) added for 1 h at room temperature; blot with anti-TGFBR1; only the target purified

- binding: binds
B1: TGFBR1 (NM_001130916.3), expressed from pcDNA3.1-TGFBR1 (receptor, UniProt P36897-3 34-426)
chain: LQCFCHLCTKDNFTCVTDGLCFVSVTETTDKVIHNSMCIAEIDLIPRDRPFVCAPSSKTGSVTTTYCCNQDHCNKIELPTTGLPLLVQRTIARTIVLQESIGKGRFGEVWRGKWRGEEVAVKIFSSREERSWFREAEIYQTVMLRHENILGFIAADNKDNGTWTQLWLVSDYHEHGSLFDYLNRYTVTVEGMIKLALSTASGLAHLHMEIVGTQGKPAIAHRDLKSKNILVKKNGTCCIADLGLAVRHDSATDTIDIAPNHRVGTKRYMAPEVLDDSINMKHFESFKRADIYAMGLVFWEIARRCSIGGIHEDYQLPYYDLVPSDPSVEEMRKVVCEQKLRPNIPNRWQSCEALRVMAKIMRECWYANGAARLTALRIKKTLSQLSQQEGIKM
